Experimental findings from PubChem BioAssay AID334 (DTP/NCI, 2004) are described below.

The assay relates to CD2F1 mice, intracerebral P388 leukemia, median survival T/C%. Nature of the assay: NCI In Vivo Anticancer Drug Screen. Data for tumor model P388 Leukemia (intracerebral) in CD2F1 (CDF1) mice. The conditions noted are these: T/C endpoint: median survival time, schedule: Q01DX005 (ip), vehicle: suspension in saline, higher T/C = longer survival. As for the experimental part: The antitumor activity of compounds was measured in mice bearing transplantable tumors. Survival or tumor size were measured and the results are expressed as the measurement made in the treated group (T) divided by the measurement made in the vehicle treated control group (C). The tumor model used in this assay is P388 Leukemia (intracerebral) in CD2F1 (CDF1) mice

Molecules are shown by their SMILES. The list does not hold the whole screen: it covers a few groups of compounds. Other doses and runs of a compound may be missing. T/C: endpoint of the treated group in % of that of the vehicle group. Where survival is the endpoint, the PubChem record calls one and a half times the control and up active, and a quarter to a half above the control has no call in these data; cut-offs in other NCI protocols can differ. Schedule codes are those of the source, read here as Q, the interval in days (D) or hours (H), X, the number of doses. Some entries show no survivor count and are marked so; the dose need not have been tolerated.

For `CC(=O)OCC12CCC(C)=CC1OC1C(O)C(OC(C)=O)C2(C)C12CO2` (configuration not stated), the T/C was 124 % of control [survivor count not shown] (dose: 2.0 mg/kg/injection) and 144 % of control [survivor count not shown] (dose: 4.0 mg/kg/injection).
